This test deals with heterogeneous nuclear ribonucleoprotein A1 (human (in human gastric cancer cell lines; the line is not named for this experiment)) (UniProt P09651). The test can be described thus: co-IP; cell lysate (150 mM KCl, 25 mM Tris-HCl pH 7.4, 5 mM EDTA, 0.5% Triton X-100, 5 mM dithiothreitol) mixed with anti-hnRNPA1, anti-USP7 or isotype control IgG at 4 °C overnight, then beads; western blot. For orientation: In western blotting, separated proteins are transferred to a membrane and probed.

Amino acid sequences for entries named in this document (tags omitted).
UniProt P09651: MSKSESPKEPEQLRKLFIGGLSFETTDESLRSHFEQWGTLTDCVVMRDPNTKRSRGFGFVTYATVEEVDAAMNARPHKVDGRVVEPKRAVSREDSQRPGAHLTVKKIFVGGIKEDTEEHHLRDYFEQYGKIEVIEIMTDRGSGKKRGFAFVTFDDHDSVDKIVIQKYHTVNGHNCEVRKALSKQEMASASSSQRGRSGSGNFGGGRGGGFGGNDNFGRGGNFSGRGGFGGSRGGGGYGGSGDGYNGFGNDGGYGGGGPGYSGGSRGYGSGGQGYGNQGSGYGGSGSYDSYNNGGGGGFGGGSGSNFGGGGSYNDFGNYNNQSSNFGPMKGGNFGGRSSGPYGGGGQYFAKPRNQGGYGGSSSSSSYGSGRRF
UniProt Q93009: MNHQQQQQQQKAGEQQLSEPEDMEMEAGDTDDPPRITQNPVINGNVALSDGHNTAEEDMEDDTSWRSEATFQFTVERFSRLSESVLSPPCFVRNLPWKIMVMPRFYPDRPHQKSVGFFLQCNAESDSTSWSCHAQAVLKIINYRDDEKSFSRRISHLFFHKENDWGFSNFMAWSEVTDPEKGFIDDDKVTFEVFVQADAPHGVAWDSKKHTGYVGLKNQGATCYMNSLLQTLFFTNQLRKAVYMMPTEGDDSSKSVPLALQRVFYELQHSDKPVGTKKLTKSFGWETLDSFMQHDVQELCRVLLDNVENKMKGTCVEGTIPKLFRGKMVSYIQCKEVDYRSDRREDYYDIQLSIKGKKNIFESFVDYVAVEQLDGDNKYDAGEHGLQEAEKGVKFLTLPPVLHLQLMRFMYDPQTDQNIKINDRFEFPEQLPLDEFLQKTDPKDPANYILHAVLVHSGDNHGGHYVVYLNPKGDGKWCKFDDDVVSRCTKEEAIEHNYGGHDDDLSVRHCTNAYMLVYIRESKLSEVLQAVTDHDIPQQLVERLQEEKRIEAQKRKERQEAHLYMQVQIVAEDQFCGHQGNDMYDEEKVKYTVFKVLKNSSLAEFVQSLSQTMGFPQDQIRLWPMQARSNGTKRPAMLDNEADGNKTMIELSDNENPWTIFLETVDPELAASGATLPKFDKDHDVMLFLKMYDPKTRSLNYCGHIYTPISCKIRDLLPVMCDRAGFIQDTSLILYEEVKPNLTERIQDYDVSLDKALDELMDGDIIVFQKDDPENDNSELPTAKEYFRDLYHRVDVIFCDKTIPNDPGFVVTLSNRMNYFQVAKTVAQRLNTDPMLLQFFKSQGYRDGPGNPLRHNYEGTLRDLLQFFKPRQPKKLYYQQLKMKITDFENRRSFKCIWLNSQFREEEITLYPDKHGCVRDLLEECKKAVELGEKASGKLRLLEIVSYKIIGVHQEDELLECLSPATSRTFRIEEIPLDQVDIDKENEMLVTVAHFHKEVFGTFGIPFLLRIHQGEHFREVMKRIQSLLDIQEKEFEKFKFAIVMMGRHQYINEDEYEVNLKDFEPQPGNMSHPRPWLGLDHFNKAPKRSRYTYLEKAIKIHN

No constants are given. Whether binding was seen depends on the method and setting. Binding seen in cells or lysates may run through a third protein. Some entries that bind do so weakly or less than the wild type.

In the case of “USP7 (from UniProt Q93009 1-1102) (enzyme)”, the binding result is reported as “binds”.

These data come from PMC8629982.
